The values that follow come from PubChem BioAssay AID2685 (National Center for Advancing Translational Sciences (NCATS), 2010).

The nature of this experiment: qHTS Assay for Lipid Storage Modulators in Drosophila S3 Cells.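 On cell number change: cells counted by Cell Tracker Red CMTPX staining in the red channel.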 To be noted: BODIPY lipid droplet fluorescence, 18-24 h; for cell number change: measured here: cell count max response, cells fed with added oleic acid. In a few lines:
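Drosophila S3 cells got compounds at several concentrations plus oleic acid (400 uM solution). Laser-scanning cytometry with 488 nm excitation read lipid droplets at 500-530 nm and cells at 575-640 nm. Percent activity was relative to 20 uM Triacsin C.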

Setting [1] is: measured here: lipid fluorescence (Fed channel) AC50, cells fed with added oleic acid.
Setting [2] is: measured here: cell number channel AC50, cells fed with added oleic acid.

The other results are listed elsewhere or left out. The main result of the screen is listed elsewhere. These columns were measured beside it and carry no call. The list favours compounds with an active or inconclusive main result. Potencies come from curve fits of mixed quality, noted in brackets.

Take `O=C(c1ccc(NC2=NC3CS(=O)(=O)CC3S2)cc1)N1CCN(c2ccccc2)CC1` (stereo unspecified): the cell number change is -15.9%. For the same compound, the AC50 under setting [1] is 0.0731 µM [falling, single point]. For `O=C(CSc1ccc2nnc(-c3ccccn3)n2n1)Nc1cccc(F)c1`, the cell number change is -2.79%. Also, under setting [1], the AC50 was 0.291 µM [rising, full curve, poor fit]. With `CS(=O)(=O)N(Cc1ccc(C(=O)NC2CCCCC2O)cc1)c1ccccc1` (stereo unspecified), the cell number change was -47.5%. Further, the half-maximal activity concentration (AC50) under setting [2] was 32.6 µM [falling, single point]. On to `CC(=O)c1c(N2CCCC2)[nH]c(-c2ccccc2)nc1=S`, for which the cell number change stood at 87.5%. Besides, under setting [2], the AC50 is 7.31 µM [rising, partial curve]. Also, the AC50 under setting [1] was 2.31 µM [rising, partial curve]. For the compound `O=C(CCc1nc2ccccc2c(=O)[nH]1)Nc1ccccc1N1CCCC1`, the cell number change was 32.2%. For the same compound, the AC50 under setting [2] is 1.3 µM [rising, full curve]. The AC50 under setting [1] was 1.16 µM [rising, full curve]. Take `COc1ccc(C(=O)n2nc(-c3ccc(OC)cc3)nc2N)cc1`: the cell number change amounted to 5.5%. For the same compound, under setting [1], the AC50 was 18.4 µM [rising, single point]. `Cc1c(NC(=O)C(C)OC(=O)Cc2ccc(F)cc2)c(=O)n(-c2ccccc2)n1C` (stereo unspecified): the cell number change was -27.3%. Also, under setting [1], the AC50 is 29.1 µM [falling, single point]. Turning to `N#Cc1ccccc1N1CCN(C(=O)c2ccc(NC(=O)c3ccc(Br)o3)cc2)CC1`, the cell number change was -39.8%. Under setting [2], the concentration at half-maximal activity (AC50) is 0.82 µM [falling, partial curve, poor fit]. Further, the concentration at half-maximal activity (AC50) under setting [1] was 4.11 µM [falling, single point]. As to `C#CCOCCOCCOCCNc1nc(N2CCN(C(=O)[C@H](CCCCN)n3cc(C(N)CO)nn3)CC2)nc(N2CCN(C(=O)[C@H](CCC(=O)O)n3cc(C(N)CC(C)C)nn3)CC2)n1` (stereo partly specified), the cell number change was 9.98%. Moreover, the AC50 under setting [1] was 1.64 µM [rising, partial curve, poor fit]. For `CCCn1c(C)cc(/C=C(\C#N)C(=O)OCC(=O)Nc2cccc(OC)c2)c1C`, the AC50 is 6.51 µM [rising, partial curve] under setting [2] and 6.51 µM [rising, partial curve] under setting [1].

Consider `O=C(O)c1ccccc1C(=O)NCCCCCCNC(=O)c1ccccc1C(=O)O`, for which the cell number change worked out at 16.7%. The same measure, in the same setting: then `O=C(COc1ccccc1Cl)NCc1ccncc1`, with -7.91%. Regarding `CCOc1ccccc1NC(=S)N1CCC(c2nc3ccccc3o2)CC1`, the cell number change came out at 7.85%. In addition, the AC50 under setting [1] is 18.4 µM [falling, single point]. In the case of `COc1cc(/C=C2/SC(=NCc3ccccc3)N(Cc3ccccc3)C2=O)ccc1O`, the cell number change was -53.6%. Further, the AC50 under setting [1] was 6.51 µM [falling, single point]. On to `Cc1ccc(Cl)cc1NC(=O)CN1C(=O)NC2(CCCCCC2)C1=O`, for which the cell number change was found to be 3.42%.

On to `O=C(NCCS(=O)(=O)NCC1CCCO1)c1ccccc1` (stereo unspecified), for which the cell number change is -22.9%. Moreover, the concentration at half-maximal activity (AC50) under setting [1] is 0.103 µM [rising, full curve, poor fit]. Turning to `CC(C)CNC1=C(C(=S)Nc2ccccc2)C(=O)CC(C)(C)C1`, the cell number change is 35.5%. In addition, the AC50 under setting [2] is 6.51 µM [rising, partial curve]. For the same compound, the concentration at half-maximal activity (AC50) under setting [1] is 6.51 µM [rising, partial curve].

For `CCc1ccccc1NC(=O)NC1CC2CCC(C1)N2Cc1cccs1` (stereo unspecified), the cell number change is -14.6%. On the same count and under the same terms, then `O=C(c1cc2cc(Cl)ccc2oc1=O)N1CCOCC1`, with 2.97%; and `CCOC(=O)c1ccc(S(=O)(=O)NNS(=O)(=O)c2ccc(C)cc2)cc1`, with 22%. On to `CC(C)NC(=O)C(c1ccc(F)cc1)N(C(=O)CCC(=O)Nc1ccccn1)C1CCCC1` (stereo unspecified), for which the cell number change was 7.98%. Also, under setting [1], the concentration at half-maximal activity (AC50) is 0.206 µM [falling, single point]. For `O=C(Nc1ccc(C(=O)O)cc1)/C(=C\c1ccc2c(c1)OCO2)NC(=O)c1ccc(Br)o1`, the cell number change amounted to 18.9%. Besides, the AC50 under setting [1] was 0.116 µM [rising, full curve].

On to `COc1ccc(OC)c(NC(=O)COC(=O)CN2C(=O)NC3(CCCC3)C2=O)c1`, for which the cell number change turned out to be 5.1%. Under setting [1], the concentration at half-maximal activity (AC50) is 3.26 µM [rising, partial curve, poor fit]. As to `Fc1ccc(CSc2nnc(CN3CCOCC3)n2-c2ccccc2)c(Cl)c1`, the cell number change is -6.41%. Besides, the AC50 under setting [1] was 6.51 µM [rising, single point]. For the compound `O=C(O)Cn1cc(/C=N/NC(=O)c2cc3cc(Br)ccc3o2)c2ccccc21`, the cell number change was 14.8%. Besides, the AC50 under setting [1] is 16.4 µM [rising, partial curve]. With `CCOc1ccccc1NC(=O)CSc1nc2ccccc2c(=O)n1CC1CCCO1` (stereo unspecified), the cell number change is -6.25%. The AC50 under setting [1] is 1.03 µM [rising, single point].

For `CCS(=O)(=O)c1ccc(-c2cccc(NC(=O)COc3ccc(Cl)cc3)c2)nn1`, the cell number change was -2.75%. Under setting [1], the concentration at half-maximal activity (AC50) was 0.731 µM [rising, partial curve]. In the case of `CC1CCN(C(=O)Cn2c(=O)n(CCc3ccccc3)c(=O)c3ccccc32)CC1`, the cell number change was 10.4%. Besides, the half-maximal activity concentration (AC50) under setting [1] is 0.184 µM [rising, full curve].

For the compound `N#Cc1cc([N+](=O)[O-])ccc1NCC1CCCO1` (stereo unspecified), the cell number change is 27%.

Take `COc1ccc(C(=O)NCCCN2CCCC2=O)cc1`: the cell number change was 12.2%. Under setting [1], the AC50 is 29.1 µM [falling, single point]. Turning to `Cc1cc(C)c(C)c(S(=O)(=O)NCc2ccncc2)c1C`, the cell number change is -20%. Regarding `CCc1nnc(NC(=O)CSc2sc3c(O)cc(=O)[nH]c3c2C#N)s1`, the cell number change is 24.3%. For the same compound, under setting [1], the half-maximal activity concentration (AC50) was 29.1 µM [rising, single point]. In the case of `CCOC(=O)N1CCN(C(=O)COC(=O)c2ccc(O)cc2O)CC1`, the cell number change is -89.9%. Under setting [2], the concentration at half-maximal activity (AC50) was 3.66 µM [falling, partial curve, poor fit]. For `Cc1cc(C)n2c(SC(C)C(=O)NC3(C#N)CCCCC3)nnc2n1` (stereo unspecified), the cell number change came to 1.25%. In addition, the half-maximal activity concentration (AC50) under setting [1] is 10.3 µM [rising, partial curve]. With `COc1cccc(NC(=O)CN(C)C(=O)c2cccc(S(=O)(=O)Nc3ccccc3OC)c2)c1`, the cell number change came to 0.311%. Moreover, the AC50 under setting [1] was 8.2 µM [rising, partial curve]. As for `C/C(CC(O)(/C=N/O)c1ccccc1)=N\O` (stereo unspecified), the AC50 under setting [1] was 4.11 µM [falling, single point].

`Cc1c(NC(=O)Cn2cc([N+](=O)[O-])cn2)c(=O)n(-c2ccccc2)n1C`: the cell number change was 18.9%. Moreover, under setting [1], the concentration at half-maximal activity (AC50) is 29.1 µM [rising, single point].

As for `O=C(C1CCCN1S(=O)(=O)c1cccc2nsnc12)N1CCCCCC1` (stereo unspecified), the concentration at half-maximal activity (AC50) under setting [1] was 29.1 µM [rising, single point]. Take `CCNCC(=O)Nc1c(C)cccc1C`: the AC50 under setting [1] was 29.1 µM [rising, single point].

A word on the AC50: it is the concentration at which the activity in the assay is half-maximal.
